PubChem BioAssay AID1259254, NCATS | 2017
The whole screen tested about 59,000 reagents; shown is an unselected part. About 1,550 of all reagents (2.6%) were called active. 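G2 share is only a proxy for re-replication; each gene was hit by three separate siRNAs, and active genes were retested.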 Raw values vary from plate to plate and are shown uncorrected. Entries without a mark were called inactive. Reagents against one gene are numbered here. Not stated in the record: the amount of reagent.

- Assay: 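Finding genes that stop cells copying their DNA twice in one cycle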 (primary screen)
- Cells: human HCT116 colorectal cancer cells
- Reagent: single siRNA against human genes
- Timing: 3 days
- Read-out: 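Nuclei stained with Hoechst and imaged; cell-cycle phase assigned by DNA content; G2 share scaled per plate, non-targeting siRNA 0%, GMNN siRNA 100%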
- Reading the numbers: G2 robust z-score and G2 cells, % of GMNN control: higher = more G2 cells, more excess DNA replication; raw share of cells in G2: higher = larger share of cells with G2 DNA content
- Rule for the call: 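An siRNA counts as active if its G2 robust z-score lies at least 5 MADs above the screen median; here such calls match roughly 38% of GMNN control or more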

gene symbol | reagent no. | G2 robust z-score | G2 cells, % of GMNN control | raw share of cells in G2 (%)
AGPAT5 | 1 | 0.654 | 7.57 | 7.49
AGPAT5 | 2 | -0.386 | 0.254 | 4.53
AGPAT5 | 3 | 2.17 | 18.2 | 14.4
PDE9A | 1 | 1.82 | 15.8 | 9.06
PDE9A | 2 | -0.486 | -0.45 | 3.36
PDE9A | 3 | -0.563 | -0.991 | 4.47
GPR108 | 1 | -0.688 | -1.87 | 5.17
GPR108 | 2 | -0.353 | 0.483 | 4.69
GPR108 | 3 | 1.77 | 15.4 | 7.99
LAMA3 | 1 | -0.498 | -0.535 | 3.25
LAMA3 | 2 | 1.3 | 12.1 | 10.5
LAMA3 | 3 | -0.477 | -0.389 | 2.97
PRR23A | 1 | 0.346 | 5.4 | 5.15
PRR23A | 2 | 0.287 | 4.99 | 6.05
PRR23A | 3 | 0.042 | 3.26 | 4.32
LIPA | 1 | -0.445 | -0.164 | 5.3
LIPA | 2 | -0.636 | -1.51 | 2.7
LIPA | 3 | 3.14 | 25 | 15.4
MRPS24 | 1 | -1.02 | -4.19 | 2.73
MRPS24 | 2 | 3.15 | 25.1 | 9.33
MRPS24 | 3 | -0.0281 | 2.77 | 5.79
FAM217B | 1 | -0.901 | -3.37 | 1.81
FAM217B | 2 | 0.473 | 6.3 | 7.32
FAM217B | 3 | -0.198 | 1.58 | 5.32
LOC401218 | 1 | 0.382 | 5.66 | 4.46
LOC401218 | 2 | 1.11 | 10.8 | 8.02
LOC401218 | 3 | 2.21 | 18.5 | 10
EIF4E | 1 | -0.503 | -0.573 | 5.03
EIF4E | 2 | 1.02 | 10.1 | 9.12
EIF4E | 3 | 1 | 10 | 7.23
WNT2B | 1 | -0.547 | -0.884 | 4.74
WNT2B | 2 | 2.23 | 18.7 | 11.3
WNT2B | 3 | -0.492 | -0.493 | 3.17
PPP2R5A | 1 | -0.378 | 0.311 | 4.9
PPP2R5A | 2 | 0.332 | 5.3 | 5.9
PPP2R5A | 3 | 0.00118 | 2.98 | 4.39
PPP5C | 1 | 2.61 | 21.4 | 11.7
PPP5C | 2 | -0.746 | -2.28 | 3.62
PPP5C | 3 | 0.132 | 3.89 | 4.67
BICC1 | 1 | -0.795 | -2.63 | 4.34
BICC1 | 2 | 1.64 | 14.5 | 9.44
BICC1 | 3 | 1.57 | 14 | 9.97
UGT2B17 | 1 | 4.92 | 37.6 | 18.3
UGT2B17 | 2 | 4.21 | 32.6 | 19.3
UGT2B17 | 3 | 0.178 | 4.22 | 5.87
LURAP1L | 1 | -0.0972 | 2.28 | 4.47
LURAP1L | 2 | 1.43 | 13 | 8.08
LURAP1L | 3 | 0.28 | 4.94 | 4.77
MFAP3 | 1 | 1.18 | 11.2 | 9.75
MFAP3 | 2 | -1.22 | -5.64 | 2
MFAP3 | 3 | 0.231 | 4.6 | 5.01
NPY4R | 1 | 1.1 | 10.7 | 9.68
NPY4R | 2 | -0.662 | -1.69 | 3.93
NPY4R | 3 | -0.931 | -3.58 | 2.17
ARMC7 | 1 | -0.933 | -3.59 | 3.02
ARMC7 | 2 | 0.441 | 6.07 | 7.33
ARMC7 | 3 | 0.642 | 7.49 | 4.67
RPL7L1P5 | 1 | 0.589 | 7.11 | 6.34
RPL7L1P5 | 2 | -0.83 | -2.87 | 3.6
RPL7L1P5 | 3 | 2.87 | 23.2 | 12.2
JAGN1 | 1 | 1.57 | 14 | 8.77
JAGN1 | 2 | -0.167 | 1.79 | 3.99
JAGN1 | 3 | -0.663 | -1.7 | 1.89
NCKAP5L | 1 | -0.697 | -1.94 | 2.93
NCKAP5L | 2 | 1.59 | 14.1 | 8.52
NCKAP5L | 3 | 0.515 | 6.59 | 5.27
RAB44 | 1 | 0.816 | 8.71 | 6.98
RAB44 | 2 | -0.697 | -1.94 | 2.75
RAB44 | 3 | 1.13 | 10.9 | 9.31

Just “raw share of cells in G2 (%)” (6 entries from above):
NPY4R #2: 3.93
NPY4R #3: 2.17
ARMC7 #1: 3.02
ARMC7 #2: 7.33
ARMC7 #3: 4.67
RPL7L1P5 #1: 6.34
